Data as given in PubChem BioAssay AID1259254 (NCATS, 2017).
Shown is a random part of about 59,000 deposited reagents. About 1,550 of all reagents (2.6%) count as active. 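G2 share is only a proxy for re-replication; each gene was hit by three separate siRNAs, and active genes were retested.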 The raw values are shown without normalisation. Reagents against one gene are numbered here. Not given: the amount of reagent.

- Screen: 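Genome-wide screen for genes that prevent DNA re-replication in cancer cells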 (primary screen)
- Cell system: human HCT116 colorectal cancer cells
- Knock-down reagent: single siRNA against human genes
- Duration: 3 days
- Measured: 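Nuclei stained with Hoechst and imaged; cell-cycle phase assigned by DNA content; G2 share scaled per plate, non-targeting siRNA 0%, GMNN siRNA 100%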
- Direction: G2 robust z-score and G2 cells, % of GMNN control: higher = more G2 cells, more excess DNA replication; raw share of cells in G2: higher = larger share of cells with G2 DNA content
- Rule for the call: 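An siRNA counts as active if its G2 robust z-score lies at least 5 MADs above the screen median; here such calls match roughly 38% of GMNN control or more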

target,reagent no.,G2 robust z-score,"G2 cells, % of GMNN control",raw share of cells in G2 (%),Outcome
FBXO10 (GeneID 26267),1,2.97,23.8,13.4,inactive
FBXO10 (GeneID 26267),2,-0.526,-0.737,3.62,inactive
FBXO10 (GeneID 26267),3,0.453,6.16,5.45,inactive
ELAPOR1 (GeneID 57535),1,-1.18,-5.36,2.23,inactive
ELAPOR1 (GeneID 57535),2,-0.785,-2.56,3.24,inactive
ELAPOR1 (GeneID 57535),3,-0.547,-0.881,2.75,inactive
PRR30 (GeneID 339779),1,-0.348,0.517,4.4,inactive
PRR30 (GeneID 339779),2,-0.66,-1.67,3.41,inactive
PRR30 (GeneID 339779),3,0.273,4.88,5.4,inactive
CA14 (GeneID 23632),1,2.21,18.5,14.6,inactive
CA14 (GeneID 23632),2,0.688,7.81,6.78,inactive
CA14 (GeneID 23632),3,0.24,4.66,5.51,inactive
KIF16B (GeneID 55614),1,-0.252,1.19,4.98,inactive
KIF16B (GeneID 55614),2,-0.323,0.694,4.43,inactive
KIF16B (GeneID 55614),3,0.318,5.2,4.8,inactive
KCNMB1 (GeneID 3779),1,3.25,25.8,14.7,inactive
KCNMB1 (GeneID 3779),2,2.13,18,10.9,inactive
KCNMB1 (GeneID 3779),3,0.0658,3.43,5.71,inactive
CLEC4G (GeneID 339390),1,4.3,33.2,17.6,inactive
CLEC4G (GeneID 339390),2,-0.983,-3.95,2.63,inactive
CLEC4G (GeneID 339390),3,-0.354,0.479,3.47,inactive
SERPINA10 (GeneID 51156),1,-1.32,-6.3,1.38,inactive
SERPINA10 (GeneID 51156),2,-0.464,-0.299,5.82,inactive
SERPINA10 (GeneID 51156),3,1.66,14.7,9.66,inactive
MLH1 (GeneID 4292),1,5.13,39,20.5,active
MLH1 (GeneID 4292),2,4.03,31.3,17.9,inactive
MLH1 (GeneID 4292),3,0.514,6.59,5.37,inactive
CNTNAP2 (GeneID 26047),1,-0.773,-2.47,5.04,inactive
CNTNAP2 (GeneID 26047),2,-1.21,-5.57,2.34,inactive
CNTNAP2 (GeneID 26047),3,0.652,7.56,6.46,inactive
TRIM5 (GeneID 85363),1,-0.86,-3.08,4.24,inactive
TRIM5 (GeneID 85363),2,-1.05,-4.41,3.07,inactive
TRIM5 (GeneID 85363),3,0.484,6.38,6.89,inactive
TROAP (GeneID 10024),1,-1.11,-4.83,3.15,inactive
TROAP (GeneID 10024),2,1.14,11,8.52,inactive
TROAP (GeneID 10024),3,3.38,26.8,13.1,inactive
CWH43 (GeneID 80157),1,-0.792,-2.61,3.36,inactive
CWH43 (GeneID 80157),2,-0.109,2.2,5.26,inactive
CWH43 (GeneID 80157),3,-1.61,-8.38,0.0859,inactive
ARHGEF26 (GeneID 26084),1,1.29,12.1,8.95,inactive
ARHGEF26 (GeneID 26084),2,-0.802,-2.68,2.78,inactive
ARHGEF26 (GeneID 26084),3,0.773,8.41,6.24,inactive
AIFM2 (GeneID 84883),1,-0.832,-2.89,4.33,inactive
AIFM2 (GeneID 84883),2,-0.995,-4.04,3.23,inactive
AIFM2 (GeneID 84883),3,-0.91,-3.43,3.18,inactive
TCEAL5 (GeneID 340543),1,1.34,12.4,8.26,inactive
TCEAL5 (GeneID 340543),2,-0.341,0.565,3.51,inactive
TCEAL5 (GeneID 340543),3,1.05,10.4,8.36,inactive
FUT1 (GeneID 2523),1,-1.4,-6.92,2.73,inactive
FUT1 (GeneID 2523),2,-1.1,-4.77,1.96,inactive
FUT1 (GeneID 2523),3,0.315,5.18,7.23,inactive
CHRM5 (GeneID 1133),1,-0.852,-3.03,4.76,inactive
CHRM5 (GeneID 1133),2,-0.128,2.07,5.24,inactive
CHRM5 (GeneID 1133),3,-0.257,1.16,3.62,inactive
ARPC1B (GeneID 10095),1,-0.697,-1.94,4.47,inactive
ARPC1B (GeneID 10095),2,-0.689,-1.88,3.99,inactive
ARPC1B (GeneID 10095),3,0.131,3.89,4.53,inactive
TNN (GeneID 63923),1,4.35,33.5,16.4,inactive
TNN (GeneID 63923),2,2.25,18.8,11,inactive
TNN (GeneID 63923),3,-1.25,-5.83,3.23,inactive
LRFN2 (GeneID 57497),1,0.647,7.52,7.01,inactive
LRFN2 (GeneID 57497),2,0.531,6.71,6.66,inactive
LRFN2 (GeneID 57497),3,-0.155,1.87,6.42,inactive
PRELID1P6 (GeneID 388955),1,-1.1,-4.77,1.42,inactive
PRELID1P6 (GeneID 388955),2,1.34,12.4,6.45,inactive
PRELID1P6 (GeneID 388955),3,-0.425,-0.022,3.32,inactive
TMEM202 (GeneID 338949),1,-0.713,-2.05,3.28,inactive
TMEM202 (GeneID 338949),2,-0.0522,2.6,4.4,inactive
TMEM202 (GeneID 338949),3,0.472,6.29,6.72,inactive

Called active (from the list above):
target,reagent no.,G2 robust z-score,"G2 cells, % of GMNN control",raw share of cells in G2 (%),Outcome
MLH1 (GeneID 4292),1,5.13,39,20.5,active
